Literature values, collected in patent US12708634B2, “Psilocybin derived compositions and methods using same” (1242753 Ontario Inc., priority 2021, dated 2026).
For at least one compound, name, drawing or mass did not settle the structure.

Columns and labels:
[1] = test system: patients diagnosed with DSM-IV mood- or anxiety-related disorders in relation to a life-threatening cancer diagnosis; conditions: two oral doses (0.31-0.43 mg/kg or 0.14-0.043 mg/kg); six-month follow-up following treatment
[2] = test system: patients with treatment-resistant major depression; conditions: two oral doses (10 mg followed by 25 mg a week later); 1 week and 3 months post-treatment
[3] = test system: patients with advanced-stage cancer; conditions: oral dose 0.2 mg/kg, more than placebo, 2 weeks following each of the two conditions

CN(C)CCc1c[nH]c2cccc(OP(=O)(O)O)c12 [psilocybin]
BDI scale [1]: large and persisting reductions
STAI scale [1]: large and persisting reductions
depressive symptoms (BDI) [2]: significantly decreased
anxiety [State-Trait Anxiety Inventory (STAI)] [3]: decreased
depression [Beck Depression Inventory (BDI)] [3]: decreased
